{"source": "the supplement of paper PMC3334620", "note": "Whole data set: some 33,000 sequences, median “E-score (-0.5 to 0.5)” near -0.0014, cut for the highest 2% near 0.25. The list shows a part of the results.", "data": [{"target": "T1, Cad1 (UniProt P24813)", "T1 sequence": "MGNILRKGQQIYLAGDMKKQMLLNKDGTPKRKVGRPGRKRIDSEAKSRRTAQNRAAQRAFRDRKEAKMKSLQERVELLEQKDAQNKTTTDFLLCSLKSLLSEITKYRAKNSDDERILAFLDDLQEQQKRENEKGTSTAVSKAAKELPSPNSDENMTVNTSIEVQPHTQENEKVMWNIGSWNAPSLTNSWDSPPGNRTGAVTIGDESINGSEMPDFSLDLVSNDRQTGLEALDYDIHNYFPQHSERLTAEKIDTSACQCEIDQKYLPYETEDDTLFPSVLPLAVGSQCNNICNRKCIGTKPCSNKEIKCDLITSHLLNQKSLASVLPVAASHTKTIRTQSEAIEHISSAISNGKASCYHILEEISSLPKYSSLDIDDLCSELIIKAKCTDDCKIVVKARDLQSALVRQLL", "experiment": "PBM E-score (8-mer binding enrichment) (E-score (-0.5 to 0.5)); higher = stronger / more preferred TF binding", "conditions": "protein concentration: 100 nM; construct: GST-full length", "protocol": "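Universal 'all 10-mer' protein binding microarrays (Agilent AMADID 015681) probed with GST-tagged S. cerevisiae TFs (full-length or DBD) made by in vitro transcription/translation (PURExpress), about 100-200 nM. Bound TF was detected with fluorescent anti-GST. Each ungapped 8-mer (which stands for itself and its reverse complement) is scored by the PBM enrichment score (E-score), a modified Wilcoxon-Mann-Whitney statistic from -0.5 to +0.5, computed with the Universal PBM Analysis Suite. Scale: above 0.35 generally sequence-specific binding.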", "values": [{"sequence": "AGTTCACC", "PBM E-score": 0.133}, {"sequence": "GTTTGGTA", "PBM E-score": 0.161}, {"sequence": "CCTCACAG", "PBM E-score": 0.081}, {"sequence": "CAATGATA", "PBM E-score": 0.0335}, {"sequence": "CAGCGCAG", "PBM E-score": 0.0181}, {"sequence": "CACGCTGA", "PBM E-score": 0.143}, {"sequence": "CAAGACCC", "PBM E-score": -0.151}, {"sequence": "AAGACTCG", "PBM E-score": -0.0735}, {"sequence": "GACGCCTA", "PBM E-score": -0.168}, {"sequence": "CCAGTGAA", "PBM E-score": -0.14}, {"sequence": "CCGCGGCG", "PBM E-score": -0.021}, {"sequence": "ACTTCATC", "PBM E-score": 0.0633}, {"sequence": "GAAGGTAC", "PBM E-score": -0.0394}, {"sequence": "AGGTCGTG", "PBM E-score": -0.0934}, {"sequence": "TCCCCAAA", "PBM E-score": -0.0378}, {"sequence": "CGATTGTC", "PBM E-score": 0.174}, {"sequence": "CAAAAGCC", "PBM E-score": -0.0141}, {"sequence": "AATACAGC", "PBM E-score": -0.0531}, {"sequence": "CTGATCGA", "PBM E-score": -0.0711}, {"sequence": "CGCTCACG", "PBM E-score": 0.0972}, {"sequence": "AAGTAGAT", "PBM E-score": 0.0897}, {"sequence": "ACGATGCG", "PBM E-score": -0.0629}, {"sequence": "CGTCTACC", "PBM E-score": 0.0268}, {"sequence": "GCGGCTAC", "PBM E-score": -0.00996}, {"sequence": "AACGTACG", "PBM E-score": 0.0612}, {"sequence": "ACTGCCTG", "PBM E-score": -0.0544}, {"sequence": "ACGTGAAT", "PBM E-score": 0.153}, {"sequence": "GAACGGTA", "PBM E-score": 0.0457}, {"sequence": "AGGTGGAC", "PBM E-score": -0.245}, {"sequence": "GTTCCGCA", "PBM E-score": 0.252}, {"sequence": "GGTCCAGA", "PBM E-score": -0.0237}, {"sequence": "CGTGAATC", "PBM E-score": 0.122}, {"sequence": "CCAGTACA", "PBM E-score": -0.142}, {"sequence": "ATCTTGAC", "PBM E-score": -0.106}, {"sequence": "AGGGGTTC", "PBM E-score": -0.287}, {"sequence": "AATTGGCA", "PBM E-score": -0.114}, {"sequence": "CGCTAGTA", "PBM E-score": 0.145}, {"sequence": "CTGGTGGC", "PBM E-score": 0.0301}, {"sequence": "GATGTCGC", "PBM E-score": -0.0282}, {"sequence": "CTCATACC", "PBM E-score": 0.13}, {"sequence": "GATTGGGA", "PBM E-score": -0.144}, {"sequence": "AGTCGCAT", "PBM E-score": 0.0112}, {"sequence": "ATTATGAA", "PBM E-score": 0.0884}, {"sequence": "GCTCAAAC", "PBM E-score": 0.108}, {"sequence": "GCGAGCAC", "PBM E-score": -0.0117}, {"sequence": "AATCTCAG", "PBM E-score": 0.0315}, {"sequence": "GCTTCACA", "PBM E-score": -0.0729}, {"sequence": "ACTTCTTG", "PBM E-score": 0.027}, {"sequence": "GTGTTCGA", "PBM E-score": 0.208}, {"sequence": "CGTTTTCA", "PBM E-score": 0.141}, {"sequence": "CCGCCCCG", "PBM E-score": 0.211}, {"sequence": "ATAAAATA", "PBM E-score": 0.161}, {"sequence": "AAACGTCC", "PBM E-score": -0.0409}, {"sequence": "GCCGGCGA", "PBM E-score": -0.0667}, {"sequence": "CGGGAAAA", "PBM E-score": 0.0645}, {"sequence": "CCTATAAA", "PBM E-score": -0.263}, {"sequence": "AGAGATAT", "PBM E-score": -0.0136}, {"sequence": "AATTTTCC", "PBM E-score": 0.26}, {"sequence": "GAGTGCAC", "PBM E-score": -0.104}, {"sequence": "AGTGAAGA", "PBM E-score": -0.245}, {"sequence": "AGCGGAAG", "PBM E-score": 0.0595}, {"sequence": "GACAACAA", "PBM E-score": 0.0956}, {"sequence": "AAAGAACA", "PBM E-score": 0.0562}, {"sequence": "CTGTTGTA", "PBM E-score": 0.102}, {"sequence": "TAACTTCA", "PBM E-score": 0.211}, {"sequence": "CAGATTAG", "PBM E-score": -0.0133}, {"sequence": "AACATTTA", "PBM E-score": 0.034}, {"sequence": "AGCCATGA", "PBM E-score": -0.0849}, {"sequence": "GGGAGCCC", "PBM E-score": -0.319}, {"sequence": "CAATTAAC", "PBM E-score": 0.00192}, {"sequence": "CCCGCCGG", "PBM E-score": -0.00326}, {"sequence": "ACGTAGTC", "PBM E-score": -0.233}, {"sequence": "GAGGCAGA", "PBM E-score": -0.184}, {"sequence": "CCGCGCAC", "PBM E-score": -0.0328}, {"sequence": "AATCAAAA", "PBM E-score": 0.0396}, {"sequence": "AAATTAGT", "PBM E-score": 0.273}, {"sequence": "AAAAGCCG", "PBM E-score": 0.109}, {"sequence": "ACGCAGCC", "PBM E-score": 0.0233}, {"sequence": "CCAGTGCC", "PBM E-score": -0.0306}, {"sequence": "GACCGGCC", "PBM E-score": -0.126}, {"sequence": "AGCCGTAT", "PBM E-score": -0.0202}, {"sequence": "ATTTTGCA", "PBM E-score": 0.0881}, {"sequence": "GCGATATA", "PBM E-score": 0.145}, {"sequence": "AAGAAGAA", "PBM E-score": -0.038}, {"sequence": "CAGAGGGA", "PBM E-score": -0.205}, {"sequence": "CGGAACAC", "PBM E-score": 0.235}]}]}
